PubChem BioAssay AID1224831 | NIAID, 2016

Screen: 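Retesting screen hits on the TLR4-driven TNF response with six separate siRNAs each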 (follow-up of hits)
System: human THP-1 B5 monocytic leukaemia cells carrying a TNF promoter luciferase reporter, made macrophage-like with PMA
Reagent: single siRNA against human genes, 50 nM
Duration: about 68 h of knock-down, then 4 h LPS
Conditions: LPS (Salmonella minnesota, TLR-grade) at 10 ng/ml for 4 h; PMA 5 ng/ml present during knock-down
Read-out: 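TNF promoter reporter read as dual luciferase ratio after 4 h LPS, normalised per plate to its median, given as replicate mean robust z-score per siRNA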
Scale: TNF reporter z-score: higher = stronger LPS-induced TNF reporter signal; z-score, median over gene's siRNAs: higher = stronger TNF reporter signal across the gene's siRNAs
Call rule: 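Two-sided call: reduced or raised TNF reporter signal counts as active once mean z reaches about -1 or below, or about 1.5 or above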
Meaning of the calls: active = changed TNF reporter (either direction); inactive = little change
Shown is an unselected part of about 3,500 deposited reagents. In the full data, 731 (21%) were called active. 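Active means either lowered or raised reporter signal; the gene-median score did not drive the per-siRNA calls.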

How did the screen score PLXDC1 (plexin domain containing 1) [SID315486033]?
TNF reporter z-score, replicate mean: -0.36; z-score, median over gene's siRNAs: -0.015; outcome: inactive

For PLXDC1 (plexin domain containing 1) [SID315486034], what was measured?
TNF reporter z-score, replicate mean: 0.68; z-score, median over gene's siRNAs: -0.015; outcome: inactive

For PLXDC1 (plexin domain containing 1) [SID315486035], what was measured?
TNF reporter z-score, replicate mean: -1.27; z-score, median over gene's siRNAs: -0.015; outcome: active

What did the screen give for PLXDC1 (plexin domain containing 1) [SID315486036]?
TNF reporter z-score, replicate mean: -0.88; z-score, median over gene's siRNAs: -0.015; outcome: inactive

What is on record for PLXDC1 (plexin domain containing 1) [SID315486037]?
TNF reporter z-score, replicate mean: 0.55; z-score, median over gene's siRNAs: -0.015; outcome: inactive

Which result is listed for PLXDC1 (plexin domain containing 1) [SID315486038]?
TNF reporter z-score, replicate mean: 0.33; z-score, median over gene's siRNAs: -0.015; outcome: inactive

What did the screen give for KCMF1 (potassium channel modulatory factor 1) [SID315486009]?
TNF reporter z-score, replicate mean: 0; z-score, median over gene's siRNAs: -0.025; outcome: inactive

For KCMF1 (potassium channel modulatory factor 1) [SID315486010], what does the deposit list?
TNF reporter z-score, replicate mean: 1.69; z-score, median over gene's siRNAs: -0.025; outcome: active

For KCMF1 (potassium channel modulatory factor 1) [SID315486011], how do the results read?
TNF reporter z-score, replicate mean: 0.6; z-score, median over gene's siRNAs: -0.025; outcome: inactive

With KCMF1 (potassium channel modulatory factor 1) [SID315486012], how do the results read?
TNF reporter z-score, replicate mean: -0.05; z-score, median over gene's siRNAs: -0.025; outcome: inactive

With KCMF1 (potassium channel modulatory factor 1) [SID315486013], how do the results read?
TNF reporter z-score, replicate mean: -0.09; z-score, median over gene's siRNAs: -0.025; outcome: inactive

How did the screen score KCMF1 (potassium channel modulatory factor 1) [SID315486014]?
TNF reporter z-score, replicate mean: -0.13; z-score, median over gene's siRNAs: -0.025; outcome: inactive

Active calls, of those listed so far:
PLXDC1 (plexin domain containing 1) [SID315486035] | TNF reporter z-score, replicate mean: -1.27; z-score, median over gene's siRNAs: -0.015; outcome: active
KCMF1 (potassium channel modulatory factor 1) [SID315486010] | TNF reporter z-score, replicate mean: 1.69; z-score, median over gene's siRNAs: -0.025; outcome: active

The list goes on.
What is on record for MAGEA12 (MAGE family member A12) [SID315482574]?
TNF reporter z-score, replicate mean: 1.44; z-score, median over gene's siRNAs: 0.265; outcome: inactive

For MAGEA12 (MAGE family member A12) [SID315482575], what does the deposit list?
TNF reporter z-score, replicate mean: 0.14; z-score, median over gene's siRNAs: 0.265; outcome: inactive

With MAGEA12 (MAGE family member A12) [SID315482576], how do the results read?
TNF reporter z-score, replicate mean: 0.23; z-score, median over gene's siRNAs: 0.265; outcome: inactive

Which result is listed for MAGEA12 (MAGE family member A12) [SID315482577]?
TNF reporter z-score, replicate mean: -0.18; z-score, median over gene's siRNAs: 0.265; outcome: inactive

What is on record for MAGEA12 (MAGE family member A12) [SID315482578]?
TNF reporter z-score, replicate mean: 0.75; z-score, median over gene's siRNAs: 0.265; outcome: inactive

What is on record for MAGEA12 (MAGE family member A12) [SID315482579]?
TNF reporter z-score, replicate mean: 0.3; z-score, median over gene's siRNAs: 0.265; outcome: inactive

Which result is listed for GMDS (GDP-mannose 4,6-dehydratase) [SID315482376]?
TNF reporter z-score, replicate mean: 0.55; z-score, median over gene's siRNAs: 0.38; outcome: inactive

What did the screen give for GMDS (GDP-mannose 4,6-dehydratase) [SID315482377]?
TNF reporter z-score, replicate mean: 0.57; z-score, median over gene's siRNAs: 0.38; outcome: inactive

For GMDS (GDP-mannose 4,6-dehydratase) [SID315482378], how do the results read?
TNF reporter z-score, replicate mean: 0.13; z-score, median over gene's siRNAs: 0.38; outcome: inactive

With GMDS (GDP-mannose 4,6-dehydratase) [SID315482379], how do the results read?
TNF reporter z-score, replicate mean: -0.25; z-score, median over gene's siRNAs: 0.38; outcome: inactive

With GMDS (GDP-mannose 4,6-dehydratase) [SID315482380], how do the results read?
TNF reporter z-score, replicate mean: 0.21; z-score, median over gene's siRNAs: 0.38; outcome: inactive

With GMDS (GDP-mannose 4,6-dehydratase) [SID315482381], how do the results read?
TNF reporter z-score, replicate mean: 0.82; z-score, median over gene's siRNAs: 0.38; outcome: inactive

What did the screen give for SLC20A2 [SID315482874]?
TNF reporter z-score, replicate mean: 3.13; z-score, median over gene's siRNAs: 0.26; outcome: active

With SLC20A2 [SID315482875], how do the results read?
TNF reporter z-score, replicate mean: 0.05; z-score, median over gene's siRNAs: 0.26; outcome: inactive

For SLC20A2 [SID315482876], how do the results read?
TNF reporter z-score, replicate mean: 0.3; z-score, median over gene's siRNAs: 0.26; outcome: inactive

With SLC20A2 [SID315482877], what does the deposit list?
TNF reporter z-score, replicate mean: 0.41; z-score, median over gene's siRNAs: 0.26; outcome: inactive

With SLC20A2 [SID315482878], what was measured?
TNF reporter z-score, replicate mean: -0.29; z-score, median over gene's siRNAs: 0.26; outcome: inactive

What did the screen give for SLC20A2 [SID315482879]?
TNF reporter z-score, replicate mean: 0.22; z-score, median over gene's siRNAs: 0.26; outcome: inactive
